# Source: the supplement of paper PMC8497498
# This is one part of the list. The data scatter; read single values as rough.
# How the values were obtained:
# Settings in all cases: 10 µM
# [1] = tested on: Plasmodium vivax liver stage (primary human hepatocyte culture); test: hypnozoite quantity inhibition (% inhibition); higher = more active against hypnozoites
# [2] = tested on: Plasmodium vivax liver stage (primary human hepatocyte culture); test: schizont net growth area inhibition (% inhibition); higher = more active against liver schizonts
# [3] = tested on: primary human hepatocytes; test: hepatic nuclei reduction relative to DMSO (100 - % of negative control); higher = more toxic to hepatocytes
# [4] = assay mode: Prophylactic (treated before or shortly after infection), fixed day 6 post-infection
# [5] = assay mode: Radical Cure (treated from day 5 post-infection for 3 days), fixed day 8 post-infection
smiles,measurement,setting,value
CCOc1ccc(OCC(=O)Nc2cc(C)cc(C)c2)cc1,hypnozoite quantity inhibition,[1]; [4],-62
same,hypnozoite quantity inhibition,[1]; [5],-67
same,schizont net growth area inhibition,[2]; [4],14.9
same,schizont net growth area inhibition,[2]; [5],-5.3
same,hepatic nuclei reduction,[3]; [4],-9%
same,hepatic nuclei reduction,[3]; [5],-7%
CCn1ncc2c(NC3CCOCC3)c(CNC(=O)c3ccnn3C)c(C)nc21,hypnozoite quantity inhibition,[1]; [4],99
same,hypnozoite quantity inhibition,[1]; [5],-2
same,schizont net growth area inhibition,[2]; [4],102
same,schizont net growth area inhibition,[2]; [5],93.7
same,hepatic nuclei reduction,[3]; [4],13%
same,hepatic nuclei reduction,[3]; [5],-2%
COc1ccc(C2c3ccc4ccccc4c3Oc3ncn(CCCN(C)C)c(=N)c32)cc1 (stereo not given),hypnozoite quantity inhibition,[1]; [4],57.4
same,hypnozoite quantity inhibition,[1]; [5],35.9
same,schizont net growth area inhibition,[2]; [4],82.3
same,schizont net growth area inhibition,[2]; [5],-6.4
same,hepatic nuclei reduction,[3]; [4],41%
same,hepatic nuclei reduction,[3]; [5],-2%
O=C(Nc1ccccc1O)c1ccc(Oc2cccc(C(=O)Nc3ccccc3O)c2)cc1,hypnozoite quantity inhibition,[1]; [4],-47.4
same,hypnozoite quantity inhibition,[1]; [5],31.3
same,schizont net growth area inhibition,[2]; [4],-5.1
same,schizont net growth area inhibition,[2]; [5],-3
same,hepatic nuclei reduction,[3]; [4],1%
same,hepatic nuclei reduction,[3]; [5],-6%
CN(C)CC1=C(CNc2ccnc3cc(Cl)ccc23)C=[C-]C1.[C-]1=CC=CC1.[Fe+2],hypnozoite quantity inhibition,[1]; [4],-37
same,hypnozoite quantity inhibition,[1]; [5],18
same,schizont net growth area inhibition,[2]; [4],-1.3
same,schizont net growth area inhibition,[2]; [5],-35.2
same,hepatic nuclei reduction,[3]; [4],-1%
same,hepatic nuclei reduction,[3]; [5],-1%
Cc1ccc(CN2CCC(C(=O)Nc3ccc(-c4cc5ccccc5[nH]4)cc3)CC2)o1,hypnozoite quantity inhibition,[1]; [4],-5.7
same,hypnozoite quantity inhibition,[1]; [5],26.5
same,schizont net growth area inhibition,[2]; [4],-37.5
same,schizont net growth area inhibition,[2]; [5],-21.2
same,hepatic nuclei reduction,[3]; [4],-1%
same,hepatic nuclei reduction,[3]; [5],-6%
O=C(CN1CCOCC1)Nc1ccc2ncnc(Nc3ccc(OCc4cccc(F)c4)c(Cl)c3)c2c1,hypnozoite quantity inhibition,[1]; [4],-44
same,hypnozoite quantity inhibition,[1]; [5],-51
same,schizont net growth area inhibition,[2]; [4],24.5
same,schizont net growth area inhibition,[2]; [5],-78.2
same,hepatic nuclei reduction,[3]; [4],-11%
same,hepatic nuclei reduction,[3]; [5],4%
CC(=O)NCC1CN(c2ccc(-c3ccc(CO)cc3)c(F)c2)C(=O)O1 (stereo not given),hypnozoite quantity inhibition,[1]; [4],20
same,hypnozoite quantity inhibition,[1]; [5],-15
same,schizont net growth area inhibition,[2]; [4],-8
same,schizont net growth area inhibition,[2]; [5],-65.6
same,hepatic nuclei reduction,[3]; [4],-3%
same,hepatic nuclei reduction,[3]; [5],-8%
CN1CCN(c2nccc3[nH]c(-c4cccc(F)c4)cc23)CC1,hypnozoite quantity inhibition,[1]; [4],-34
same,hypnozoite quantity inhibition,[1]; [5],-12
same,schizont net growth area inhibition,[2]; [4],-47.8
same,schizont net growth area inhibition,[2]; [5],5.5
same,hepatic nuclei reduction,[3]; [4],-6%
same,hepatic nuclei reduction,[3]; [5],3%
C=C[C@H]1C[N@@]2CC[C@H]1C[C@H]2[C@H](O)c1ccnc2ccc(OC)cc12,hypnozoite quantity inhibition,[1]; [4],0
same,hypnozoite quantity inhibition,[1]; [5],12
same,schizont net growth area inhibition,[2]; [4],29.2
same,schizont net growth area inhibition,[2]; [5],48.5
same,hepatic nuclei reduction,[3]; [4],-10%
same,hepatic nuclei reduction,[3]; [5],-6%
CC(C)OCc1cc(CN2CCN(c3cccc(Cl)c3)CC2)c(O)c2ncccc12,hypnozoite quantity inhibition,[1]; [4],-3.8
same,hypnozoite quantity inhibition,[1]; [5],-8.9
same,schizont net growth area inhibition,[2]; [4],-11.7
same,schizont net growth area inhibition,[2]; [5],-14.7
same,hepatic nuclei reduction,[3]; [4],-1%
same,hepatic nuclei reduction,[3]; [5],-8%
COc1ccc(C2Sc3ccccc3N=C3C2=C(O)c2ccccc23)cc1 (stereo not given),hypnozoite quantity inhibition,[1]; [4],-31
same,hypnozoite quantity inhibition,[1]; [5],61.1
same,schizont net growth area inhibition,[2]; [4],53.5
same,schizont net growth area inhibition,[2]; [5],34.6
same,hepatic nuclei reduction,[3]; [4],-11%
same,hepatic nuclei reduction,[3]; [5],-8%
Cc1[nH]c2ccccc2c1C(c1cccs1)N1CCN(C)CC1 (stereo not given),hypnozoite quantity inhibition,[1]; [4],15
same,hypnozoite quantity inhibition,[1]; [5],3
same,schizont net growth area inhibition,[2]; [4],12.9
same,schizont net growth area inhibition,[2]; [5],-6
same,hepatic nuclei reduction,[3]; [4],1%
same,hepatic nuclei reduction,[3]; [5],10%
O=C(NC1CCN(Cc2ccccc2)CC1)c1cc(-c2cccnc2)nc2ccc(Cl)cc12,hypnozoite quantity inhibition,[1]; [4],-19
same,hypnozoite quantity inhibition,[1]; [5],15.6
same,schizont net growth area inhibition,[2]; [4],-48.7
same,schizont net growth area inhibition,[2]; [5],27.2
same,hepatic nuclei reduction,[3]; [4],6%
same,hepatic nuclei reduction,[3]; [5],-10%
Oc1c(C(Nc2ccccn2)c2cccc(Oc3ccccc3)c2)ccc2cccnc12 (stereo not given),hypnozoite quantity inhibition,[1]; [4],-11.7
same,hypnozoite quantity inhibition,[1]; [5],-53.4
same,schizont net growth area inhibition,[2]; [4],96
same,schizont net growth area inhibition,[2]; [5],10.2
same,hepatic nuclei reduction,[3]; [4],11%
same,hepatic nuclei reduction,[3]; [5],-16%
O=c1nc(C=Cc2ccc(Cl)cc2)oc2ccccc12,hypnozoite quantity inhibition,[1]; [4],-28.1
same,hypnozoite quantity inhibition,[1]; [5],-3.1
same,schizont net growth area inhibition,[2]; [4],9.9
same,schizont net growth area inhibition,[2]; [5],35.7
same,hepatic nuclei reduction,[3]; [4],-6%
same,hepatic nuclei reduction,[3]; [5],-3%
Cc1ccccc1OCCSc1nc2ccc(NC(=O)c3ccccc3)cc2s1,hypnozoite quantity inhibition,[1]; [4],-29.1
same,hypnozoite quantity inhibition,[1]; [5],31.9
same,schizont net growth area inhibition,[2]; [4],35.3
same,schizont net growth area inhibition,[2]; [5],-21.1
same,hepatic nuclei reduction,[3]; [4],0%
same,hepatic nuclei reduction,[3]; [5],-6%
C[n+]1c2ccccc2nc2ccc(NCCO)cc21,hypnozoite quantity inhibition,[1]; [4],32.9
same,hypnozoite quantity inhibition,[1]; [5],-3.1
same,schizont net growth area inhibition,[2]; [4],-6.8
same,schizont net growth area inhibition,[2]; [5],-72.1
same,hepatic nuclei reduction,[3]; [4],-14%
same,hepatic nuclei reduction,[3]; [5],4%
O=C(NO)C1(CS(=O)(=O)c2ccc(Oc3ccc(Cl)cc3)cc2)CCOCC1,hypnozoite quantity inhibition,[1]; [4],-80
same,hypnozoite quantity inhibition,[1]; [5],12
same,schizont net growth area inhibition,[2]; [4],-71.9
same,schizont net growth area inhibition,[2]; [5],46.7
same,hepatic nuclei reduction,[3]; [4],4%
same,hepatic nuclei reduction,[3]; [5],5%
Cc1ccc(F)cc1NC(=O)c1cc(Cl)ccc1Nc1ccccc1,hypnozoite quantity inhibition,[1]; [4],-12
same,hypnozoite quantity inhibition,[1]; [5],-6.2
same,schizont net growth area inhibition,[2]; [4],26.6
same,schizont net growth area inhibition,[2]; [5],-37.2
same,hepatic nuclei reduction,[3]; [4],1%
same,hepatic nuclei reduction,[3]; [5],-12%
CC(C)(C)NCc1cc(Nc2ccnc3cc(Cl)ccc23)c2c(c1O)CCCC2,hypnozoite quantity inhibition,[1]; [4],-31
same,hypnozoite quantity inhibition,[1]; [5],20
same,schizont net growth area inhibition,[2]; [4],-108
same,schizont net growth area inhibition,[2]; [5],-12.2
same,hepatic nuclei reduction,[3]; [4],1%
same,hepatic nuclei reduction,[3]; [5],-5%
O=C(NCC(c1ccsc1)N1CCCCCC1)c1ccc(C(F)(F)F)cc1 (stereo not given),hypnozoite quantity inhibition,[1]; [4],-27.2
same,hypnozoite quantity inhibition,[1]; [5],12.8
same,schizont net growth area inhibition,[2]; [4],-17.3
same,schizont net growth area inhibition,[2]; [5],3
same,hepatic nuclei reduction,[3]; [4],-3%
same,hepatic nuclei reduction,[3]; [5],-8%
Cc1cc(C)nc(-n2nc(C)cc2Nc2ccccc2)n1,hypnozoite quantity inhibition,[1]; [4],15
same,hypnozoite quantity inhibition,[1]; [5],-20
same,schizont net growth area inhibition,[2]; [4],25.7
same,schizont net growth area inhibition,[2]; [5],-41.2
same,hepatic nuclei reduction,[3]; [4],4%
same,hepatic nuclei reduction,[3]; [5],7%
O=C(Nc1cccnn1)N1CCC(=Cc2cccc(Oc3ccc(C(F)(F)F)cn3)c2)CC1,hypnozoite quantity inhibition,[1]; [4],51
same,hypnozoite quantity inhibition,[1]; [5],42
same,schizont net growth area inhibition,[2]; [4],48.6
same,schizont net growth area inhibition,[2]; [5],-14.3
same,hepatic nuclei reduction,[3]; [4],3%
same,hepatic nuclei reduction,[3]; [5],-8%
CCOc1ccc(CCNC(=O)c2cccs2)cc1OCC,hypnozoite quantity inhibition,[1]; [4],-7.2
same,hypnozoite quantity inhibition,[1]; [5],67.9
same,schizont net growth area inhibition,[2]; [4],40.5
same,schizont net growth area inhibition,[2]; [5],13.2
same,hepatic nuclei reduction,[3]; [4],-5%
same,hepatic nuclei reduction,[3]; [5],0%
CN(C)CCCNc1c2ccccc2nc2ccccc12,hypnozoite quantity inhibition,[1]; [4],79
same,hypnozoite quantity inhibition,[1]; [5],67.9
same,schizont net growth area inhibition,[2]; [4],103
same,schizont net growth area inhibition,[2]; [5],90
same,hepatic nuclei reduction,[3]; [4],45%
same,hepatic nuclei reduction,[3]; [5],54%
COc1ccccc1N=C1C(=O)c2ccccc2C(O)=C1N1CCCCC1,hypnozoite quantity inhibition,[1]; [4],1.7
same,hypnozoite quantity inhibition,[1]; [5],33.6
same,schizont net growth area inhibition,[2]; [4],58.9
same,schizont net growth area inhibition,[2]; [5],35
same,hepatic nuclei reduction,[3]; [4],0%
same,hepatic nuclei reduction,[3]; [5],2%
c1ccc(-c2nc(NC3CCCCC3)cc(C3CC3)n2)nc1,hypnozoite quantity inhibition,[1]; [4],-41
same,hypnozoite quantity inhibition,[1]; [5],-41
same,schizont net growth area inhibition,[2]; [4],93.4
same,schizont net growth area inhibition,[2]; [5],-31.6
same,hepatic nuclei reduction,[3]; [4],-4%
same,hepatic nuclei reduction,[3]; [5],1%
CCc1nc(N)nc(N)c1-c1ccc(Cl)cc1,hypnozoite quantity inhibition,[1]; [4],-92
same,hypnozoite quantity inhibition,[1]; [5],15
same,schizont net growth area inhibition,[2]; [4],-51.6
same,schizont net growth area inhibition,[2]; [5],-2.6
same,hepatic nuclei reduction,[3]; [4],-14%
same,hepatic nuclei reduction,[3]; [5],7%
CS(=O)(=O)Cc1nc2ccccc2oc1=O,hypnozoite quantity inhibition,[1]; [4],5
same,hypnozoite quantity inhibition,[1]; [5],1
same,schizont net growth area inhibition,[2]; [4],-21
same,schizont net growth area inhibition,[2]; [5],-13.6
same,hepatic nuclei reduction,[3]; [4],-4%
same,hepatic nuclei reduction,[3]; [5],-11%

# Fetched one by one from above:
smiles,measurement,setting,value
O=C(NC1CCN(Cc2ccccc2)CC1)c1cc(-c2cccnc2)nc2ccc(Cl)cc12,hypnozoite quantity inhibition,[1]; [4],-19
COc1ccccc1N=C1C(=O)c2ccccc2C(O)=C1N1CCCCC1,hypnozoite quantity inhibition,[1]; [4],1.7
Cc1ccccc1OCCSc1nc2ccc(NC(=O)c3ccccc3)cc2s1,hypnozoite quantity inhibition,[1]; [4],-29.1
CN(C)CCCNc1c2ccccc2nc2ccccc12,hepatic nuclei reduction,[3]; [5],54%

# An excerpt of these results, tab-delimited:
smiles	measurement	setting	value
CCn1ncc2c(NC3CCOCC3)c(CNC(=O)c3ccnn3C)c(C)nc21	schizont net growth area inhibition	[2]; [5]	93.7
same	hepatic nuclei reduction	[3]; [4]	13%
same	hepatic nuclei reduction	[3]; [5]	-2%
COc1ccc(C2c3ccc4ccccc4c3Oc3ncn(CCCN(C)C)c(=N)c32)cc1 (stereo not given)	hypnozoite quantity inhibition	[1]; [4]	57.4

# Given tab-delimited: part of the list above
smiles	measurement	setting	value
CCOc1ccc(OCC(=O)Nc2cc(C)cc(C)c2)cc1	schizont net growth area inhibition	[2]; [5]	-5.3
CN(C)CCCNc1c2ccccc2nc2ccccc12	schizont net growth area inhibition	[2]; [4]	103
COc1ccccc1N=C1C(=O)c2ccccc2C(O)=C1N1CCCCC1	hypnozoite quantity inhibition	[1]; [5]	33.6
